Test results taken from paper PMC5608759.
No constants are given. Whether binding was seen depends on the method and setting. In cells and extracts the contact can be indirect. Here binding means that the protein was enriched with, or labelled near, the bait; the list need not be complete.

The chains behind the UniProt entries cited, without tags or fusion partners.
UniProt P04150: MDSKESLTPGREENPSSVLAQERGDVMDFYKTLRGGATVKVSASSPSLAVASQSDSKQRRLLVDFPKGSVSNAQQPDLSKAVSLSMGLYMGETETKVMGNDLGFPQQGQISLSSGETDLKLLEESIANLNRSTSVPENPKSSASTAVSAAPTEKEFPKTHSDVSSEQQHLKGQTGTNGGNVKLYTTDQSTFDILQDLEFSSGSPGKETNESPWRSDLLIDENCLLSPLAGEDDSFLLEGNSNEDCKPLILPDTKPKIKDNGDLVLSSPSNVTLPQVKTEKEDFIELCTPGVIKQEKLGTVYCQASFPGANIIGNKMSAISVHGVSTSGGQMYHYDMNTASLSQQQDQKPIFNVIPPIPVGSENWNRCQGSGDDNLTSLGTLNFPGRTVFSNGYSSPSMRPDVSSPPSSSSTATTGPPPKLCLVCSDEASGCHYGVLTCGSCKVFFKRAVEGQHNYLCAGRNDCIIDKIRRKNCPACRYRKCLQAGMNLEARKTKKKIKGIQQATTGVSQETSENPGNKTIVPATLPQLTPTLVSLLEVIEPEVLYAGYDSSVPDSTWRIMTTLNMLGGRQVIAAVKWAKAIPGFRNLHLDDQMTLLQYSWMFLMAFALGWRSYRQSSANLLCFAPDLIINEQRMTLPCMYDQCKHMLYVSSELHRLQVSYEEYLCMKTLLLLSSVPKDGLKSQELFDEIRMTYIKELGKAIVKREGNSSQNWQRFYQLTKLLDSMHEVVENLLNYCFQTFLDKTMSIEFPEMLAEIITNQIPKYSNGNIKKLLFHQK

B1: dbp3 (protein, UniProt Q10202 1-529)
chain: MAKRSVEELKRSADEEASVKRKEKKSKHEHKKHKKDKPSADKDRISKKDKKKSKKGKSKTKEESIEINAEEGAKIAQPAIGSANASNHNDEEAYDRYIKKHNISFADPKSSENLLPILQFDELDVSAKLREGLKNYKEPTPIQAATWPYLLAGRDVVGIAETGSGKTVAFGIPALQYLNGLSDNKSVPRVLVVSPTRELAIQTYENLNSLIQGTNLKAVVVYGGAPKSEQARAAKNASVIIGTPGRLLDLINDGSIDCSQVGYLVLDEADRMLDTGFEQDIRNIISHTPDPTRNGSRQTVFFSATWPESVRALAATFLKDPVKITIGSDELAASQNITQIVEILDDPRSKERMLDNLLRKHLSSGGKDDKILIFVLYKKEAARVEGTLARKYNVVGIHGDMSQGARLQALNDFKSGKCPVLVATDVAARGLDIPKVQLVINVTFPLTIEDYVHRIGRTGRANTKGTAITFFTPQDKSHAGELVNVLRQAKQDIPEGLFKFGTAVKPKLNAYGSRVVDVPVKAATKIVFD
B2: mis3 (protein, UniProt O74777 1-327)
chain: MTEVESSTENNVIVNKNKRYRRDKPWDTDDIDHWKIEPFTKDDSKESFLEESSFATLFPKYREKYLREVWPHVTRALDKFGITCVLDLVEGSMTVKTTRKTFDPYSILDARDLIKLLARSVPFPQAVKIMQDGVACDIIKIGNILRNKERFVKRRQRLIGTNGQTLKALELLTQCYILVQGTTVAVMGGYKGLKEVRRIVEDCMHNIHPIYHIKELMIKRELAKDPTLANESWDRFLPQFKKRNVARRKPAKIRETKEYTPFPPAQPPSKLDLEIESGEYFLKKEEKERKKRAEKKEQQKEKKKEKEKERMKAFIPPEESSKKRKRD
B3: utp22 (protein, UniProt O94676 1-1097)
chain: MNGLKREHESSSSQDGSKTPETEYDSHVDSIEDIHSLASKRKKLNEKKENLEDLTLLKTSAFELKLNELIREISVRGKYFRHANTFVEKIKDLIFKTPVIPETNFWSACKNLEKDKKVIVPLAEPLSAKDTNLRASFVPPKTVTPGIFSCSNKFFLNPDGWSYDLFLEIPESIFTQKDYLNGRYFRKRAFYLTCIAKHLLENLGNEVKLEFVAFNDDIRRPILAILPESKGFAATGKRFTVFLIPTVRQIFPVSKLLPHKNAIRDFMEHEELKPTPFYNNSVLEEQNLLFYRDLVKKYSVNPQFLDACGLGSTWLNMRGFSSSIHSNGFGLLEWYVLMALLMSSTGLPAGNVLNTYLTAAQFFKSMLQFLSSKNLTSTLFKLNADSSNLKIGNGHLPTLIDCNTGFNLLGKMKQSFFEYFQASCRHTLNLLDENANYNFSKIFITHVNVPALEFDVSGCIPLEPKELEDPNFCRKTDLDSPYSLYLEYTWDLLQHALGDRVCQIILYSSICTSCSINESLKTKLPKLISFGLLLNPDALLRLVDIGPSPDDTVGSQKFREFWGEVSELRKFKNGSIAESVYWECSSPDERIRIPQRIIRHILNRHLGNNVGDRVSFRNEKFRVYVHSKISPNTDTYNEYVPVMEAYNEAVKSLINLSDIPLSIAEILPADESLRYSSSSVPFYESSTCAPIDVVFQFESSSKWPDELEGIQRTKIAFLLKIAELLEALDNVERASVGLENTDNPTHNCCFLQVLFSNNFTFRYRLRNDREIFFWKSLERNPSTKLSAQKGLYAYEHMFQFIPRHTLAIQAICQAHRSYSMAVRLAKHWFYSHLLTDHVTDEVIELLVASVYINSSSWRTTSSGETSFCRMLHFLAHWDWRFDPLIINSNGKLPHDVRHQATEKLESIRKQDVAIAHNAYYIITDYDFDGNHIGYYKPSKIIANRITSLARASLSELLKDTPNYKSIFKSSLDIYHVVIDVNINKLPMYRESNLTKYKNLQNMSSERPGFEPITEFVKELHRCFEDTISFFYNKKNPKVVTGVFNPRILANRPYRTNIDYPFKVVDKDTVVLDADVVCEEIRQVGGDLIRSIQLQLKA
B4: gap1 (protein, UniProt P33277 1-766)
chain: MTKRHSGTLSSSVLPQTNRLSLLRNRESTSVLYTIDLDMESDVEDAFFHLDRELHDLKQQISSQSKQNFVLERDVRYLDSKIALLIQNRMAQEEQHEFAKRLNDNYNAVKGSFPDDRKLQLYGALFFLLQSEPAYIASLVRRVKLFNMDALLQIVMFNIYGNQYESREEHLLLSLFQMVLTTEFEATSDVLSLLRANTPVSRMLTTYTRRGPGQAYLRSILYQCINDVAIHPDLQLDIHPLSVYRYLVNTGQLSPSEDDNLLTNEEVSEFPAVKNAIQERSAQLLLLTKRFLDAVLNSIDEIPYGIRWVCKLIRNLTNRLFPSISDSTICSLIGGFFFLRFVNPAIISPQTSMLLDSCPSDNVRKTLATIAKIIQSVANGTSSTKTHLDVSFQPMLKEYEEKVHNLLRKLGNVGDFFEALELDQYIALSKKSLALEMTVNEIYLTHEIILENLDNLYDPDSHVHLILQELGEPCKSVPQEDNCLVTLPLYNRWDSSIPDLKQNLKVTREDILYVDAKTLFIQLLRLLPSGHPATRVPLDLPLIADSVSSLKSMSLMKKGIRAIELLDELSTLRLVDKENRYEPLTSEVEKEFIDLDALYERIRAERDALQDVHRAICDHNEYLQTQLQIYGSYLNNARSQIKPSHSDSKGFSRGVGVVGIKPKNIKSSNTVKLSSQQLKKESVLLNCTIPEFNVSNTYFTFSSPSTDNFVIAVYQRGHSKVLVEVCICLDDVLQRRYASNPVVDLGFLTFEANKLYHLFEQLFLRK
B5: nop2 (protein, UniProt O94268 1-608)
chain: MGRKQKSKQGIPPTLEENHNSSHKVTENAKKRKHSKEKPQNSRKRQLAEEKKSLFENSDSENEKDLIDADEFEEAETLSDLEHDEEPQTFADEFIDDEAKECEGEEEDSVFDSDEEHEVKPMFSDDSGDEEDLELANMEAMSRKLDEEAELEEKEAEEELHTNIHPEAPTVLPPIDGFTDSQPISTLPQDLSQIQLRIQEIVRVLNDFKNLCEPGRNRSEYVDQLLNDICAYYGYSRFLAEKLFELFSVSEAVEFFEANEMPRPVTIRTNTLKTQRRELAQALINRGVNLEPIGKWSKVGLQVFESQVPIGATPEYLAGHYILQAASSFLPVMALAPQPNERILDMSSAPGGKVTYVAALQKNTGIIFANDSNKARTKALSANIHRLGVRNAIVCNYDGRKFPNEVIGGFDRVLLDAPCSGTGVIYKDQSVKTNKSERDFDTLSHLQRQLLLSAIDSVNADSKTGGFIVYSTCSITVDEDEAVIQYALKKRPNVKLVSTGLEFGREGFTRFREKRFHPSLKLTRRYYPHVHNIDGFFVAKLKKISDKIPTVNVADDMKDGTNNDVEIEKNSTEIDNITFNDEADKEIIEQNRRKWLKSKGYKVAKKKD
B6: brx1 (protein, UniProt Q9HGL6 1-295)
chain: MSTVYKLKTSERAPKNEDEDEEYVPVQNGQGNKHSAGFVPIKQKVLVLSSRGVTYRQRHLLNDLVSMMPHSKKDSKLDSKDRLYQLNELAELYNCNNIFFFESRRREDLYLHIARAPNGPTVKFHVENLHTMDELNMTGNALKGSRPILSFDKTFDTAPHLKVVKELLQQTFGIPKGARRSKPFIDRVCTLTIADGKIWFRNYEIRENEDKSKDPVTLIEIGPRFVMTIINILEGSFGGPVIYKNDTFVSSTMVRAAIRNQAAQRYVNRQESKLERQVRAQQNVIPEDPLDNVFA
B7: grs1 (protein, UniProt Q10179 1-652)
chain: MTEVSKAAAFDRTQFEELMKKRFFFSPSFQIYGGISGLYDYGPPGSALQSNLVDIWRKHFVIEESMLEVDCSMLTPHEVLKTSGHVDKFADWMCKDPATGEIFRADHLVEEVLEARLKGDKEARGQNSNDQPEESDDKKKRKKKVKEIRATRLDDKTVEEYEFILAQIDNYDGDQLGELMKKYDIRNPATNGELETPRQFNLMFETQIGPSGGLKGYLRPETAQGQFLNFSRLLEFNNGKVPFASAMVGKAFRNEISPRSGLLRVREFLMAEVEHFVDPKNKEHDRFDEVSHMPLRLLPRGVQLEGKTDILEMPIGDAVKKGIVDNTTLGYFMARISLFLEKIGIDMNRVRFRQHMSNEMAHYACDCWDAEIQCSYGWIECVGCADRSAYDLSVHSKATKTPLVVQEALPEPVVVEQFEVEVNRKKFGPRFKRDAKAVEEAMISWPESEKVEKSAQLVAEGKIIVNVNGVEHTVESDLVTIEKRKHTEHIRTYTPNVIEPSFGLGRILYVLMEHAYWTRPEDVNRGVLSFPASIAPIKALIVPLSRNAEFAPFVKKLSAKLRNLGISNKIDDSNANIGRRYARNDELGTPFGLTVDFETLQNETITLRERDSTKQVRGSQDEVIAALVSMVEGKSSFEDALAKFGEFKSTQE
B8: pus1 (protein, UniProt O94396 1-534)
chain: MGRGGKRTWYNGDRREAKRNRPNSIYNGEGRPENLVVGEKKPKRKVACLVGYCGSGYHGMQLNPPSKTIEGDLFDAFVKAGAVSSYNADDPKKVALARAARTDKGVHAAGNVISLKLIMEDEKLIEKVNEHLPPSIRLWDVIRTINSFNPRTYCESRIYEYMVPTYAFVPPKPSSILGNCIMKNSPMPAEPINKENINQLSRSLFYEEGKEFWDDYDIAAKEILSLYEQDPEGFVNPYSKRGAAALANSENNKGSEAGVSAKTNPDMDSDSSAIVNEFLKPDSVEDESAGSKIDPSYRLERALKHIEVLKLKNYRISADRLSVIRETLNQYVGVHNFHNFTVGQAFHQKNSNRVIRSFTASDPFMIGDTEWISCKVHGQSFMLHQIRKMIALAILVVRTGCPVERIQDAFKKTKINIPKGPGFGLLLESPFFKGYNEHKAPENNRDPIDFTKYEQKITAFKHAHIYDKIFLEEARKQVFHCFLSFIDSYNEEDFSYLSDIGITEKTQEVSSKLPDVLSSDEEEDSAENKDDLEG
B9: hhp2 (protein, UniProt P40236 1-400)
chain: MTVVDIKIGNKYRIGRKIGSGSFGQIYLGLNTVNGEQVAVKLEPLKARHHQLEYEFRVYNILKGNIGIPTIRWFGVTNSYNAMVMDLLGPSLEDLFCYCGRKFTLKTVLLLADQLISRIEYVHSKSFLHRDIKPDNFLMKKHSNVVTMIDFGLAKKYRDFKTHVHIPYRDNKNLTGTARYASINTHIGIEQSRRDDLESLGYVLLYFCRGSLPWQGLQADTKEQKYQRIRDTKIGTPLEVLCKGLPEEFITYMCYTRQLSFTEKPNYAYLRKLFRDLLIRKGYQYDYVFDWMILKYQKRAAAAAAASATAPPQVTSPMVSQTQPVNPITPNYSSIPLPAERNPKTPQSFSTNIVQCASPSPLPLSFRSPVPNKDYEYIPSSLQPQYSAQLRRVLDEEPAP

Molecular target: human glucocorticoid receptor alpha (GRα), expressed in S. pombe (human) (UniProt P04150)
Test: affinity purification with mass spectrometry; anti-GR antibody on epoxy-activated magnetic beads; lysates of S. pombe expressing hGRα (empty vector as control) grown at 30 °C or 39 °C (heat shock 30 min); lysis buffer 250 mM NaCl, 20 mM Tris pH 7.5, 1% Triton X-100, 100 mM potassium acetate; 4 °C, 1 hour, 6 washes; SDS-PAGE and LC-MS/MS

binding, binds:
B1
B2
B3
B4
B5
B6
B7
B8
B9
